## Percent effect of library compounds

Sequences of proteins named here, by UniProt entry; tags and fusion partners are left off. Residues count along the entry.
UniProt P9WPC5, whole entry: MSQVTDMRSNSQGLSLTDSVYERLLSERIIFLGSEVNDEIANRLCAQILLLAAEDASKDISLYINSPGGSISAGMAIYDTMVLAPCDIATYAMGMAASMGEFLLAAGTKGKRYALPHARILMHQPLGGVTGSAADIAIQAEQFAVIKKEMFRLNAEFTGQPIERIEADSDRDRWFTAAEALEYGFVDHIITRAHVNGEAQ
UniProt P9WPC3, whole entry partner: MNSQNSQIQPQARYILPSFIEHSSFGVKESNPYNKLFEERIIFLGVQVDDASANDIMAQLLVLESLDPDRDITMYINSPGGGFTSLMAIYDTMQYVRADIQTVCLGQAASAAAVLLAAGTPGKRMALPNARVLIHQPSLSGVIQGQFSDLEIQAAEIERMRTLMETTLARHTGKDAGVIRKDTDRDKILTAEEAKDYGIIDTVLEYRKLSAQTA
UniProt P9WFT3, whole entry: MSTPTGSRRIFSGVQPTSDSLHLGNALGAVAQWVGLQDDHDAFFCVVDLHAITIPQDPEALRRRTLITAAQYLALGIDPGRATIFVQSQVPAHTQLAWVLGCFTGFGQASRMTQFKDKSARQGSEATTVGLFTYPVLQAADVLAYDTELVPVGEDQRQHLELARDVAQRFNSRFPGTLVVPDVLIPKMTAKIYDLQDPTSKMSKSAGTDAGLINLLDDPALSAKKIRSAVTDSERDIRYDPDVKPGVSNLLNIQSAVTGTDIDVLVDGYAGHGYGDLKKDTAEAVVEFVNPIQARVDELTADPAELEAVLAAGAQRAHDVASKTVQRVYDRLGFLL
UniProt Q8IDJ8, 1-583: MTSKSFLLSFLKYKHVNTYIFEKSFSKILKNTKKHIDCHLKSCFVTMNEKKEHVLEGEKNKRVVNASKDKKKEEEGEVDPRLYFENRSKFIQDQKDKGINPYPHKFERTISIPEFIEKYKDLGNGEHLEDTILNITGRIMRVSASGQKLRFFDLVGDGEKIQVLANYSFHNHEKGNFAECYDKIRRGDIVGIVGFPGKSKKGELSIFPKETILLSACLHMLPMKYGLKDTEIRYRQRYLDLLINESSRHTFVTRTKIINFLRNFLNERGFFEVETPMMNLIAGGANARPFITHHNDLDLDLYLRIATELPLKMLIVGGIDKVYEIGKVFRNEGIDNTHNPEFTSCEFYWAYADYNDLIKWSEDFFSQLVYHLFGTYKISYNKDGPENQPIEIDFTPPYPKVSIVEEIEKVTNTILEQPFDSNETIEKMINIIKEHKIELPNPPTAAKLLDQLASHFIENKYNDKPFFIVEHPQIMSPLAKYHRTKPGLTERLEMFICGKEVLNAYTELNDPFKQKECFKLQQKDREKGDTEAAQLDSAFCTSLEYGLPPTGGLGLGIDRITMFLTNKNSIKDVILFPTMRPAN

A: 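ClpP1P2, Mycobacterium tuberculosis (UniProt P9WPC5 and UniProt P9WPC3). Protease assay of ClpP1P2, read by the AMC dye that it sets free. Compounds at 50 µM. Direction is inferred from only a few compounds that gave an IC50; most scored high, so higher reads as stronger inhibition. Most other retested compounds had strongly negative values. About 69,000 compounds were tested under these conditions; 0.015% (about 10) showed 50% or more at least once.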
B: 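Tryptophan-tRNA ligase, Mycobacterium tuberculosis (UniProt P9WFT3). Enzyme assay of tryptophanyl-tRNA synthetase; the read-out is not stated. Concentration: 10 µM. Direction is not recorded; retested compounds ran higher, which suggests that high means inhibition. About 65,000 compounds were tested under these conditions; 0.098% (about 64) showed 50% or more at least once.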
C: 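Lysine-tRNA ligase, Plasmodium falciparum 3D7 (UniProt Q8IDJ8). Enzyme assay of the cytosolic lysyl-tRNA synthetase in 384-well plates, read by luminescence. Concentration: 30 µM. Direction is inferred from only a few compounds that gave an IC50; most scored high, so higher reads as stronger inhibition. Size under these conditions: about 69,000 compounds, about 49 of them at 50% or above in at least one test.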

The filed quantity is “Percent Effect” (%). The record does not define 0% and 100%; most values in the screen are far below 50% and negative numbers occur (in some assays of this library far below -100). This is an unselected part of the compounds tested.

{"structure": "O=C(NCC1CC1)C1CN(C(=O)c2ccnnc2)CC12CCOCC2", "stereo": "stereo not given", "A": 4.961, "B": -1.355, "C": 1.119}
{"structure": "CCN(CC)S(=O)(=O)N1CCCC(c2nccn2Cc2cccnc2)C1", "stereo": "stereo not given", "A": -4.018, "B": -0.4836, "C": 6.233}
{"structure": "COc1ccc(C(C(=O)O)N2CCC(O)(c3cccnc3)CC2)cc1F", "stereo": "stereo not given", "A": 11.88, "B": -2.015, "C": 0.2785}
{"structure": "CCC(Nc1nc(C)nc2onc(C)c12)c1cccs1", "stereo": "stereo not given", "A": -17.3, "B": -1.881, "C": -0.7506}
{"structure": "O[C@H]1CN(CCCOc2ccccc2F)CC[C@@]12CCCO2", "A": -15.39, "B": -1.319, "C": 2.109}
{"structure": "CC(C)(C)c1nc(CC(=O)Nc2cnccc2O)cs1", "A": -3.706, "B": 7.669, "C": 1.767}
{"structure": "Cc1cc(C(=O)N2CCCC2c2nnc3n2CCCCC3)on1", "stereo": "stereo not given", "A": 3.609, "B": 3.728, "C": 0.6028}
{"structure": "NC(=O)N1CCC2(CCN(C(=O)c3cccnc3)CC2)C1", "A": 1.196, "C": 3.246}
{"structure": "Cc1nc(C2CCCN(C(=O)c3cc(Cl)c[nH]3)C2)sc1C", "stereo": "stereo not given", "A": -21.65, "B": -5.65, "C": -0.1059}
{"structure": "CCCN1CCC(NC(=O)c2ccnc(SCC)c2)CC1", "A": -8.022, "B": 2.81, "C": 6.751}
{"structure": "CCOC(=O)c1sc2ccsc2c1CNC(=O)C(C)OC", "stereo": "stereo not given", "A": -26.39, "B": -1.645, "C": 1.001}
{"structure": "Cc1ccc(S(=O)(=O)N2CCCC3(CCCN3S(C)(=O)=O)C2)cc1F", "stereo": "stereo not given", "A": 32.76, "B": 0.6352, "C": 0.9955}
{"structure": "COc1ccc(CN2CC3(CCNCC3)CCC2=O)c(F)c1F", "A": 10.15, "B": -2.183, "C": -0.2785}
{"structure": "Cn1nc(C(=O)N(CC(F)(F)F)c2cccc(Cl)c2)ccc1=O", "A": -7.489, "B": 6.638, "C": -1.86}
{"structure": "Cn1ccc(C(=O)N2CCCC(Cc3cccc4ncccc34)C2)n1", "stereo": "stereo not given", "A": -8.606, "B": 3.595, "C": 1.952}
{"structure": "COCCn1ccc2c(C(=O)O)cccc21", "A": -14.19, "B": 1.356, "C": 0.3541}
{"structure": "CCC1(CC)CC(=O)N(CC(O)c2cc(F)ccc2F)C1=O", "stereo": "stereo not given", "A": -7.125, "B": 3.35, "C": 3.664}
{"structure": "COc1cc(C(C)=O)ccc1SCC(=O)Nc1ccc(C)cn1", "A": -4.675, "B": 0, "C": 2.882}
{"structure": "CN(C)[C@@H]1CN(C(=O)Cc2cccs2)[C@@H]2CCCO[C@H]12", "A": -7.327, "C": 4.196}
{"structure": "CCOc1cc(C(=O)NS(C)(=O)=O)cc(-c2ccccc2)c1OC", "A": -4.081, "B": -0.9723, "C": 6.451}
{"structure": "CN(C)c1ncccc1NC(=O)COCC1CC1", "A": -0.7327, "B": 1.089, "C": 4.629}
{"structure": "CN1CCCC(CCC(=O)NCCCn2ncc3ccccc32)C1", "stereo": "stereo not given", "A": -0.2219, "B": 0.05974, "C": -0.02415}
{"structure": "COc1ccccc1N1CCN(C(=O)CCn2ccc(C)n2)CC1", "A": -9.828, "B": 13.4, "C": 0.05837}
{"structure": "COC1COC2(CCN(Cc3ccco3)CC2)C1", "stereo": "stereo not given", "A": -3.225, "B": -5.578, "C": 5.598}
{"structure": "COc1ccc(Cl)cc1CN(C)C(=O)CN1C(=O)CCC1C", "stereo": "stereo not given", "A": -3.364, "B": 2.922, "C": 5.104}
{"structure": "CS(=O)(=O)N1CC[C@]2(C[C@H](Oc3ccccn3)CO2)C1", "A": -1.267, "B": -9.956, "C": 1.254}
{"structure": "Cc1nc(NC2CCCCC2)cc(C2CCCNC2)n1", "stereo": "stereo not given", "A": 6.435, "B": 10.55, "C": -0.8491}
{"structure": "Cc1n[nH]cc1CNCC1(c2cccc(F)c2)CCOCC1", "A": 3.702, "B": 1.252, "C": 6.364}
{"structure": "Cc1ncsc1CCN(C)C(=O)c1c(O)cccc1O", "A": -11.34, "B": -3.314, "C": -0.1557}
{"structure": "CC(C)c1nn(C)c(N(C)C)c1CNC1CCOc2c(F)cccc21", "stereo": "stereo not given", "A": 8.676, "B": -1.795, "C": 8.606}
{"structure": "CCn1nnc2c1C(COCC(=O)N(C)C)CN(Cc1ccoc1)C2", "stereo": "stereo not given", "A": -13.83, "C": 5.688}
{"structure": "COc1ccccc1CN1CCCC2(Cc3ccccc3CNC2=O)C1", "stereo": "stereo not given", "A": -9.403, "B": -8.211, "C": 1.821}
{"structure": "CCc1ccc(C(=O)N2CC[C@](C)(O)C(C)(C)C2)[nH]1", "A": -30.26, "B": -0.2894, "C": 5.855}
{"structure": "CC(C)(C)c1n[nH]c(C2CN(C(=O)Cn3ccccc3=O)CCO2)n1", "stereo": "stereo not given", "A": -4.448, "B": -0.6152, "C": 1.901}
{"structure": "O=C(C1CC1)N1CCN(C(=O)C2CC(=O)N(c3ccccc3Br)C2)CC1", "stereo": "stereo not given", "A": 11.03, "B": -5.473, "C": -3.959}
{"structure": "CCc1nc(CSCc2csc(CS(C)(=O)=O)n2)cs1", "A": -9.72, "B": 1.175, "C": 4.258}

Repeated from the top, 5 entries:

{"structure": "O=C(NCC1CC1)C1CN(C(=O)c2ccnnc2)CC12CCOCC2", "stereo": "stereo not given", "A": 4.961, "B": -1.355, "C": 1.119}
{"structure": "CCN(CC)S(=O)(=O)N1CCCC(c2nccn2Cc2cccnc2)C1", "stereo": "stereo not given", "A": -4.018, "B": -0.4836, "C": 6.233}
{"structure": "COc1ccc(C(C(=O)O)N2CCC(O)(c3cccnc3)CC2)cc1F", "stereo": "stereo not given", "A": 11.88, "B": -2.015, "C": 0.2785}
{"structure": "CCC(Nc1nc(C)nc2onc(C)c12)c1cccs1", "stereo": "stereo not given", "A": -17.3, "B": -1.881, "C": -0.7506}
{"structure": "O[C@H]1CN(CCCOc2ccccc2F)CC[C@@]12CCCO2", "A": -15.39, "B": -1.319, "C": 2.109}

From ChEMBL document CHEMBL3988442, “University of Dundee, Small-Polar-MMV Screening Library” (2021).